Not every detail of the peptide structures is certain; ends, links or a residue may be inferred. Where a SMILES comes first, the peptide text is derived from it. The star is where a group is joined. 5FAM = O=C1OC2(c3ccc(O)cc3Oc3cc(O)ccc32)c2ccc(C(=O)*)cc21
What was measured:
RAGE [1] = target: T1, RAGE (Homo sapiens, UniProt Q15109); assay: nanoparticle uptake in RAGE knocked down hCMEC/D3 cells; assay type: cell-based; settings: 5 μM, 16 h
T1 construct: endogenous in cells; host or cells: hCMEC/D3

By UniProt entry, the sequences of proteins in these tests, tags left out. Residues count along the entry.
UniProt Q15109, 23-404: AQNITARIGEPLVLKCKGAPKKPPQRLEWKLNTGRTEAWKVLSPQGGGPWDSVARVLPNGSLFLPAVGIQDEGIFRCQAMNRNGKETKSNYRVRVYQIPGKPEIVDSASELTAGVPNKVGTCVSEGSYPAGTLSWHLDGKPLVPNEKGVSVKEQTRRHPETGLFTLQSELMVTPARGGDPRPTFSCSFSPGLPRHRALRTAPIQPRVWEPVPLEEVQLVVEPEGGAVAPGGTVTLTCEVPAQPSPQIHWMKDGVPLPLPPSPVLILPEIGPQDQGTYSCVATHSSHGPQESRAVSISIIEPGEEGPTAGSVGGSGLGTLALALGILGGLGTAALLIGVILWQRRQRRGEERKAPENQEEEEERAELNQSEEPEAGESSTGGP
UniProt P02786, whole entry: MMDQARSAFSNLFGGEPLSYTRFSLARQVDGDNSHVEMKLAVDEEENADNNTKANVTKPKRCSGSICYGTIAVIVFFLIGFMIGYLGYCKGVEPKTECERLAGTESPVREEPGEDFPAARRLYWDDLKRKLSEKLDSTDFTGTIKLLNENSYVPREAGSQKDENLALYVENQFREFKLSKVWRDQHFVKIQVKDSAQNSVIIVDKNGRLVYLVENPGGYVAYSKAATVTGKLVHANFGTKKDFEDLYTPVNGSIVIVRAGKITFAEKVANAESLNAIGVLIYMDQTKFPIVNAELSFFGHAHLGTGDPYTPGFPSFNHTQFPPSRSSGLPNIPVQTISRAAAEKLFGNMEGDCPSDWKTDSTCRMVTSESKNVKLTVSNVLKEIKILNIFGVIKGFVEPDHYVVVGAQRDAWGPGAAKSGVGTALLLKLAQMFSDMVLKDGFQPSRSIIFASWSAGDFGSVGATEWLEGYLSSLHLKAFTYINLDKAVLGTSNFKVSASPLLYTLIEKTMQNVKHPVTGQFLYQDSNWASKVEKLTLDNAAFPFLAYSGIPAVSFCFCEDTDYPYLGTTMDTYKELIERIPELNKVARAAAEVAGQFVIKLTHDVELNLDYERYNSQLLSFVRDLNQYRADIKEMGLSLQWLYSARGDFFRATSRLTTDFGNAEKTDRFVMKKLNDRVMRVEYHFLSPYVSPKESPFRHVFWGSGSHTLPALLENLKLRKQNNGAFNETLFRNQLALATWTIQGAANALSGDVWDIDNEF

[2] = dynamic light scattering (DLS) size and zeta potential; assay type: physicochemical; settings: 25° C.
[3] = target: T2, transferrin receptor (TFRC) (Homo sapiens, UniProt P02786); assay: nanoparticle uptake in TFRC knocked down hCMEC/D3 cells; assay type: cell-based; settings: 5 μM, 16 h
T2 construct: endogenous in cells; host or cells: hCMEC/D3

[4] = critical aggregation concentration measurement; assay type: physicochemical
[5] = Nanoparticle Tracking Analysis (NTA) of peptide self-assembly; assay type: physicochemical; settings: depending on the peptide conjugate concentration
Method: To investigate whether the polypeptide conjugate can self-assemble, Nanoparticle Tracking Analysis (NTA) technology was employed to detect the peptide aggregation. Briefly, 1 mL peptide solutions with different concentrations (0.5, 1, 2.5 and 5 μM) were prepared by diluting the peptide stock solutions (500 μM) with MQ water and incubate for 30 min at room temperature. NTA measurements were performed with a NanoSight LM20 (NanoSight Ltd., Amesbury, United Kingdom) equipped with a sample chamber with a 405 nm blue laser and a Viton fluoroelastomer O-ring. The peptide samples were injected in the sample chamber with sterile syringes (BD Discardit II, New Jersey, USA) until the liquid reached the tip of the nozzle. All measurements were performed at room temperature. For the pH effect of FAM-CGY peptide assembly, FAM-CGY stock solution (500 μM) was diluted into 5 μM with 10 mM HEPES buffer where pH values were adjusted with 1 M HCl or 1 M NaOH, respectively.
Different molar rates of siRNA were added to the FAM-CGY peptide solution (50 μM/L) dropwise in saline solution and incubated for 30 min. […] The atomic force microscopy (AFM) (FIG. 22A), nanoparticle tracking analysis (NTA) (FIG. 22B), fluorescence microscopy (not shown), dynamic light scattering (DLS) technology (not shown) and transmission electron microscopy (TEM) (FIG. 23) were employed to characterize the siRNA/FAM-CGY complex. […]

[6] = transmission electron microscopy (TEM) size of complexes and nanoparticles; assay type: physicochemical; settings: at least 100 randomly selected nanoparticle images
transferrin receptor = target: T3, transferrin receptor (Homo sapiens, UniProt P02786); assay: competition of FAM-CGY nanoparticle uptake with transferrin in hCMEC/D3 cells (FACS); assay type: cell-based; settings: 5 μM peptide, transferrin 62.5-500 nM
T3 construct: endogenous in cells; host or cells: hCMEC/D3

RAGE [7] = target: T1, RAGE; assay: competition of FAM-CGY nanoparticle uptake with RAGE-peptide or amyloid-β in hCMEC/D3 cells (FACS); assay type: cell-based; settings: 5 μM peptide, 5, 10 or 20 μg competitor

With CC[C@H](C)[C@H](NC(=O)[C@H](CC(N)=O)NC(=O)[C@H](Cc1c[nH]cn1)NC(=O)[C@@H](NC(=O)[C@@H]1CCCN1C(=O)[C@H](CCCNC(=N)N)NC(=O)[C@H](Cc1ccc(O)cc1)NC(=O)CNC(=O)[C@H](CS)NC(=O)c1ccc2c(c1)C(=O)OC21c2ccc(O)cc2Oc2cc(O)ccc21)C(C)C)C(=O)N[C@@H](CCCNC(=N)N)C(=O)NCC(=O)N[C@@H](Cc1c[nH]cn1)C(=O)N[C@@H](Cc1c[nH]c2ccccc12)C(=O)N[C@@H](C)C(=O)N1CCC[C@H]1C(=O)NCC(=O)O [FAM-CGY] (5FAM-CGYRPVHNIRGHWAPG-OH) the “uptake in RAGE knocked out cells” value (RAGE [1]) was “markedly reduced”, the “PDI (DLS)” value [2] was 0.325 ± 0.028 and the “Size (DLS)” value [2] was 156.6 ± 2.1 nm. For the same compound, the Zeta potential [2] was 7.27 ± 0.73 mV, the “uptake in TFRC knocked out cells” value [3] was “markedly reduced” and the critical aggregation concentration [4] was 2.5 µM. For the same compound, the “size of the self-assembled nanoparticles” value [5] was 2-200 nm, the “measured mean size of the core-shell nanoparticles (TEM)” value [6] was 116±22 nm and the “uptake with increasing transferrin concentration” value (transferrin receptor) was “significantly decreased”. For the same compound, the “uptake with increasing RAGE-peptide or amyloid-β concentration” value (RAGE [7]) was “significantly decreased”.

— patent US12357702B2, “Peptidic diagnostic compositions” (S. M. Discovery Group Inc., priority 2013, dated 2025)
